The values that follow come from the supplement of paper PMC4604168 (melanoma cell lines).

SMILES strings stand for the structures. Some of the results follow. Many values rest on one well or one pass, so single values are uncertain.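 Cells were imaged in 1,536-well plates, and nuclei stained with an antibody against cleaved PARP were counted against all DNA-stained nuclei to give the apoptosis fraction. Screening doses were chosen to leave most cells alive, and resting and induced cleaved-PARP levels differ strongly between cell lines.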

The test system of the assay is 501Mel. The experiment in a line: cleaved PARP positive nuclei fraction relative to DMSO control; melanoma cells; higher = more apoptosis. The conditions noted are these: library dose: low library concentration; 72 h.
As for `Nc1ncn([C@H]2C[C@H](O)[C@@H](CO)O2)c(=O)n1` [decitabine] + Cc1cc(N2CCOCC2)cc2[nH]c(-c3c(NC[C@@H](O)c4cccc(Cl)c4)cc[nH]c3=O)nc12 [BMS536924] (first compound 0.1 µM, partner dose 0.2 µM), the “cleaved PARP positive nuclei fraction” value stood at 91.4%. Under `Cn1c(=O)n(-c2ccc(C(C)(C)C#N)cc2)c2c3cc(-c4cnc5ccccc5c4)ccc3ncc21` + NCC(=O)Nc1ccc(-n2nc(C(F)(F)F)cc2-c2ccc3c(ccc4ccccc43)c2)cc1 [OSU03012] (first compound 0.004 µM, partner dose 1 µM) stands 198%; under `CS(=O)(=O)CCNCc1ccc(-c2ccc3ncnc(Nc4ccc(OCc5cccc(F)c5)c(Cl)c4)c3c2)o1` [lapatinib] + O=C(Nc1cccc(Cl)c1)Nc1ncc(CCNc2ncnc3ccsc23)s1 [SNS314] (first compound 0.8 µM, partner dose 0.0008 µM), 86.3%. Under `CN1CCN(c2ccc3nc(-c4c(N)c5c(F)cccc5[nH]c4=O)[nH]c3c2)CC1` [Dovitinib] + CN(C)S(=O)(=O)c1ccc2c(c1)/C(=C/c1cc3c([nH]1)CCCC3)C(=O)N2 [SU6656] (first compound 0.1 µM, partner dose 0.4 µM) stands 97.5%.

On to `C[C@@H](Oc1cc(-c2cnn(C3CCNCC3)c2)cnc1N)c1c(Cl)ccc(F)c1Cl` [Crizotinib] + Cn1cncc1[C@@](N)(c1ccc(Cl)cc1)c1ccc2c(c1)c(-c1cccc(Cl)c1)cc(=O)n2C [tipifarnib] (first compound 0.2 µM, partner dose 0.01 µM), for which the “cleaved PARP positive nuclei fraction” value amounted to 92.2%.
